No constants are given. Whether binding was seen depends on the method and setting. Binding seen in cells or lysates may run through a third protein. Some binding calls cover weakened binding; strength is not graded here. Where a sequence is shown, tags or fusion partners need not be part of it.
Biological target: T1, GFP:Orco (odour-receptor coreceptor, GFP-tagged) (Drosophila melanogaster) (UniProt Q9VNB5)
T1 sequence: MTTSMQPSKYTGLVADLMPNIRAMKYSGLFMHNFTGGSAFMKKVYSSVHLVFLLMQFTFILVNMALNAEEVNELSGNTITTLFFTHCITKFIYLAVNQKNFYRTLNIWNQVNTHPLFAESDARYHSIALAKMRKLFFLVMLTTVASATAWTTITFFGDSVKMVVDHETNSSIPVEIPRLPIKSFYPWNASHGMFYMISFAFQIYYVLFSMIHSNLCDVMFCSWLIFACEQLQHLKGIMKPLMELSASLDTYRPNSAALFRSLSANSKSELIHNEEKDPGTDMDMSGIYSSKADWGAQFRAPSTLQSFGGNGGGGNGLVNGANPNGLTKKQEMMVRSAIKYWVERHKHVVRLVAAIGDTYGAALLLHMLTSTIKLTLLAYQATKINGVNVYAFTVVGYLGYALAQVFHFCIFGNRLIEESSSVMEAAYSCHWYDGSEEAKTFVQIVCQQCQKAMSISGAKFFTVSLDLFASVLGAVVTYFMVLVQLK
Assay: co-IP; agarose beads conjugated with GFP-nanobody (chromotek); head extracts of chaGal4>UAS-GFP:Orco adults; western blot

B1: KLP68D (kinesin-2β motor subunit) (protein, UniProt P46867 1-784)
chain: MSAKSRRPGTGSSQTPNECVQVVVRCRPMSNRERSERSPEVVNVYPNRGVVELQNVVDGNKEQRKVFTYDAAYDASATQTTLYHEVVFPLVSSVLEGFNGCIFAYGQTGTGKTFTMEGVRGNDELMGIIPRTFEQIWLHINRTENFQFLVDVSYLEIYMEELRDLLKPNSKHLEVRERGSGVYVPNLHAINCKSVEDMIKVMQVGNKNRTVGFTNMNEHSSRSHAIFMIKIEMCDTETNTIKVGKLNLIDLAGSERQSKTGASAERLKEASKINLALSSLGNVISALAESSPHVPYRDSKLTRLLQDSLGGNSKTIMIANIGPSNYNYNETLTTLRYASRAKSIQNQPIKNEDPQDAKLKEYQEEIERLKRLIGPQQQQRSEKQVTAKKQRVKKPKKETVTKEMSDSLQVSTIEQPVEDDSDPEGAESESDKENEAEVAKSNEELERERVENSKLAAKLAELEGQLVRGGKNLLDTYSERQIELEKKLVEIAERKKREIEIQQQLELQEETTLEIRERNVSLEQEVELKKRKLSKCYAKYLALQQELNDCKSDHNQDLRELEMAQNELVKELKRQLLIIDNFVPIEVKQRLYTQAKYDEEQEEWKFSSMSLPTPPGGDGKFSSKRPVSHPQRRRPTSEYALQEAKSNSPSSLRFKSENIVNYELEMPCRTTQEYRTPKVSASLQAVLAQAMQTGGDDIDIVDSHTNSLRSRLENIINANANGGAGPGAGVAVGSSIPNVRNIKSSRGLPSAASNLDSNRRPPTGRLPAKKPASAYPKARGLVNK
- binding: binds
